Data from PubChem BioAssay AID220 (DTP/NCI, 2004).
The list is a part of this screen's results and no random one: it is rich in T/C values a quarter to a half above the control, in often repeated tests (any T/C) and in doses without a T/C. Other doses and runs of a compound stand elsewhere. T/C: endpoint of the treated group in % of that of the vehicle group. Schedules are NCI's codes, read here as Q, the interval in days (D) or hours (H), X, the number of doses. Some T/C values carry the count of animals alive at the toxicity check (mostly the fifth day); where none is given, no animal had died by that day. Some entries give survivors of the animals treated and no T/C: the source holds a T/C of zero for them, seemingly a mark for toxic or unscored doses. Counts of survivors are from the toxicity check (mostly the fifth day) where no day follows; animals may have died later. Some entries hold several experiments; the results are listed from low to high.

Tested on: CD8F1 mice, subcutaneous mammary adenocarcinoma, T/C%
Assay: NCI In Vivo Anticancer Drug Screen. Data for tumor model Mammary Adenocarcinoma CD8F1 (subcutaneous) in CD8F1
Conditions: higher T/C = larger tumour
How it was run: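 Antitumor activity is assessed in transplantable-tumor mice by comparing the treated group with a vehicle-treated control group. Survival or tumor size serves as the measure, reported as T divided by C.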

Q: With Nc1cc2c3c(cccc3c1)C(=O)N(CCN1CCCC1)C2=O as the molecule, how does the T/C (T/C endpoint: median tumor weight change, dose: 31.25 mg/kg/injection, schedule: Q01DX001 (ip), vehicle: saline with Tween-80, evaluated on day 28) read?
A: 67 % of control

Q: And the T/C (T/C endpoint: median tumor weight change, dose: 31.25 mg/kg/injection, schedule: Q01DX001 (ip), vehicle: saline with Tween-80, evaluated on day 29)?
A: 86 % of control

Q: And the T/C (T/C endpoint: median tumor weight change, dose: 31.25 mg/kg/injection, schedule: Q01DX001 (ip), vehicle: saline with Tween-80, evaluated on day 30)?
A: 56 % of control [9 of 10 alive on day 30]

Q: What about the T/C (T/C endpoint: median tumor weight change, dose: 31.25 mg/kg/injection, schedule: Q01DX001 (ip), vehicle: saline with Tween-80, evaluated on day 35) of the same molecule?
A: 106 % of control

Q: And the T/C (T/C endpoint: median tumor weight change, dose: 62.5 mg/kg/injection, schedule: Q01DX001 (ip), vehicle: saline with Tween-80, evaluated on day 28)?
A: 56 % of control

Q: And the T/C (T/C endpoint: median tumor weight change, dose: 62.5 mg/kg/injection, schedule: Q01DX001 (ip), vehicle: saline with Tween-80, evaluated on day 29)?
A: 92 % of control

Q: What about the T/C (T/C endpoint: median tumor weight change, dose: 62.5 mg/kg/injection, schedule: Q01DX001 (ip), vehicle: saline with Tween-80, evaluated on day 30) of the same molecule?
A: 12 % of control

Q: And the T/C (T/C endpoint: median tumor weight change, dose: 62.5 mg/kg/injection, schedule: Q01DX001 (ip), vehicle: saline with Tween-80, evaluated on day 35)?
A: 74 % of control

Q: And the T/C (T/C endpoint: median tumor weight change, dose: 125.0 mg/kg/injection, schedule: Q01DX001 (ip), vehicle: saline with Tween-80, evaluated on day 28)?
A: 29 % of control

Q: And the T/C (T/C endpoint: median tumor weight change, dose: 125.0 mg/kg/injection, schedule: Q01DX001 (ip), vehicle: saline with Tween-80, evaluated on day 29)?
A: 41 % of control

Q: What about the T/C (T/C endpoint: median tumor weight change, dose: 125.0 mg/kg/injection, schedule: Q01DX001 (ip), vehicle: saline with Tween-80, evaluated on day 30) of the same molecule?
A: 20 % of control [9 of 10 alive on day 30]

Q: And the T/C (T/C endpoint: median tumor weight change, dose: 125.0 mg/kg/injection, schedule: Q01DX001 (ip), vehicle: saline with Tween-80, evaluated on day 35)?
A: 43 % of control [9 of 10 alive on day 35]

Q: And the T/C (T/C endpoint: median tumor weight change, dose: 250.0 mg/kg/injection, schedule: Q01DX001 (ip), vehicle: saline with Tween-80, evaluated on day 28)?
A: 8 % of control [7 of 10 alive on day 28]

Q: And the T/C (T/C endpoint: median tumor weight change, dose: 250.0 mg/kg/injection, schedule: Q01DX001 (ip), vehicle: saline with Tween-80, evaluated on day 35)?
A: 35 % of control [7 of 10 alive on day 35]

Q: What about the survivor count (T/C endpoint: median tumor weight change, dose: 250.0 mg/kg/injection, schedule: Q01DX001 (ip), vehicle: saline with Tween-80) of the same molecule?
A: 2 of 10 on day 30 and 3 of 10 on day 29

Q: What about the survivor count (T/C endpoint: median tumor weight change, dose: 500.0 mg/kg/injection, schedule: Q01DX001 (ip), vehicle: saline with Tween-80) of the same molecule?
A: 0 of 10 on day 28, 0 of 10 on day 29, 0 of 10 on day 30

Q: CC[C@](O)(C(=O)O)c1cc2n(c(=O)c1CO)Cc1cc3ccccc3nc1-2 was tested. Which survivor count (T/C endpoint: median tumor weight (est.), dose: 50.0 mg/kg/injection, schedule: Q07DX005 (ip), vehicle: saline) did it give?
A: 6 of 10 on day 30

Q: What about the survivor count (T/C endpoint: median tumor weight (est.), dose: 100.0 mg/kg/injection, schedule: Q07DX005 (ip), vehicle: saline) of the same molecule?
A: 2 of 10 on day 30

Q: What about the survivor count (T/C endpoint: median tumor weight (est.), dose: 200.0 mg/kg/injection, schedule: Q07DX005 (ip), vehicle: saline) of the same molecule?
A: 1 of 10 on day 30

Q: What does the source list for Cc1c2cc[n+](CCN3CCCCC3)cc2c(C)c2c1[nH]c1ccc(O)cc12?
A: T/C (T/C endpoint: median tumor weight change, dose: 31.25 mg/kg/injection, schedule: Q01DX001 (ip), vehicle: suspension in saline, evaluated on day 25): 76 % of control; T/C (T/C endpoint: median tumor weight change, dose: 31.25 mg/kg/injection, schedule: Q01DX001 (ip), vehicle: suspension in saline, evaluated on day 28): 55 % of control; T/C (T/C endpoint: median tumor weight change, dose: 31.25 mg/kg/injection, schedule: Q01DX001 (ip), vehicle: suspension in saline, evaluated on day 36): 50 % of control; T/C (T/C endpoint: median tumor weight change, dose: 31.25 mg/kg/injection, schedule: Q01DX001 (ip), vehicle: suspension in saline, evaluated on day 43): 75 % of control; T/C (T/C endpoint: median tumor weight change, dose: 62.5 mg/kg/injection, schedule: Q01DX001 (ip), vehicle: suspension in saline, evaluated on day 25): 18 % of control [9 of 10 alive on day 25]; T/C (T/C endpoint: median tumor weight change, dose: 62.5 mg/kg/injection, schedule: Q01DX001 (ip), vehicle: suspension in saline, evaluated on day 28): 49 % of control; T/C (T/C endpoint: median tumor weight change, dose: 62.5 mg/kg/injection, schedule: Q01DX001 (ip), vehicle: suspension in saline, evaluated on day 36): 5 % of control [8 of 10 alive on day 36]; T/C (T/C endpoint: median tumor weight change, dose: 62.5 mg/kg/injection, schedule: Q01DX001 (ip), vehicle: suspension in saline, evaluated on day 43): 42 % of control; survivor count (T/C endpoint: median tumor weight change, dose: 125.0 mg/kg/injection, schedule: Q01DX001 (ip), vehicle: suspension in saline): 0 of 10 on day 36, 0 of 10 on day 43, 1 of 10 on day 25, 5 of 10 on day 28; survivor count (T/C endpoint: median tumor weight change, dose: 250.0 mg/kg/injection, schedule: Q01DX001 (ip), vehicle: suspension in saline): 0 of 10 on day 25

Q: What does the source list for OCC1OC(n2cnc3cc(Cl)c(Cl)cc32)C(O)C1O (centres undefined)?
A: T/C (T/C endpoint: median tumor weight (est.), dose: 12.5 mg/kg/injection, schedule: Q07DX005 (ip), vehicle: saline with Tween-80, evaluated on day 32): 138 % of control; T/C (T/C endpoint: median tumor weight (est.), dose: 200.0 mg/kg/injection, schedule: Q07DX005 (ip), vehicle: saline with Tween-80, evaluated on day 30): 130 % of control [9 of 10 alive]

Q: With O=C(Nc1ccccc1)c1c(O)[nH]c(=S)[nH]c1=O as the molecule, how does the survivor count (T/C endpoint: median tumor weight change, dose: 225.0 mg/kg/injection, schedule: Q01DX001 (ip), vehicle: saline with Tween-80) read?
A: 2 of 10 on day 28

Q: And the survivor count (T/C endpoint: median tumor weight change, dose: 450.0 mg/kg/injection, schedule: Q01DX001 (ip), vehicle: saline with Tween-80)?
A: 0 of 10 on day 28

Q: What about the survivor count (T/C endpoint: median tumor weight change, dose: 900.0 mg/kg/injection, schedule: Q01DX001 (ip), vehicle: saline with Tween-80) of the same molecule?
A: 0 of 10 on day 28

Q: How did the T/C (T/C endpoint: median tumor weight change, dose: 0.63 mg/kg/injection, schedule: Q01DX001 (ip), vehicle: saline, evaluated on day 28) turn out when O=C1C(NCCO)=C(N2CC2)C(=O)C(NCCO)=C1N1CC1 was run?
A: 140 % of control

Q: And the T/C (T/C endpoint: median tumor weight change, dose: 1.25 mg/kg/injection, schedule: Q01DX001 (ip), vehicle: saline, evaluated on day 28)?
A: 136 % of control

Q: What about the survivor count (T/C endpoint: median tumor weight change, dose: 5.0 mg/kg/injection, schedule: Q01DX001 (ip), vehicle: saline) of the same molecule?
A: 0 of 10 on day 32 and 4 of 10 on day 39

Q: And the survivor count (T/C endpoint: median tumor weight change, dose: 10.0 mg/kg/injection, schedule: Q01DX001 (ip), vehicle: saline)?
A: 0 of 10 on day 32 and 0 of 10 on day 39

Q: How did the survivor count (T/C endpoint: median tumor weight change, dose: 25.0 mg/kg/injection, schedule: Q01DX001 (ip), vehicle: saline with Tween-80) turn out when O=C1C=C[C@H](O)[C@@]2(CO)O[C@@H]12 was run?
A: 0 of 10 on day 27

Q: What about the survivor count (T/C endpoint: median tumor weight change, dose: 50.0 mg/kg/injection, schedule: Q01DX001 (ip), vehicle: saline with Tween-80) of the same molecule?
A: 0 of 10 on day 27

Q: For CNc1nc2c(N)ncnc2n1C1OC(CO)C(O)C1O (centres undefined), which survivor count (T/C endpoint: median tumor weight (est.), dose: 100.0 mg/kg/injection, schedule: Q07DX005 (ip), vehicle: suspension in saline) is on record?
A: 2 of 10 on day 30

Q: What about the survivor count (T/C endpoint: median tumor weight (est.), dose: 200.0 mg/kg/injection, schedule: Q07DX005 (ip), vehicle: suspension in saline) of the same molecule?
A: 0 of 10 on day 30 and 5 of 10 on day 30

Q: What about the survivor count (T/C endpoint: median tumor weight (est.), dose: 400.0 mg/kg/injection, schedule: Q07DX005 (ip), vehicle: suspension in saline) of the same molecule?
A: 1 of 10 on day 30

Q: Which results are given for COc1cc2cc(c1Cl)N1CC(O)C(C)(O)C(=O)NC(C)C(=O)OC(CC1=O)C1(C)OC1C(C)C1CC(O)(NC(=O)O1)C(OC)/C=C\C=C(\C)C2OC (centres undefined)?
A: T/C (T/C endpoint: median tumor weight change, dose: 32.0 micrograms/kg/injection, schedule: Q01DX001 (ip), vehicle: distilled water + alcohol, evaluated on day 31): 143 % of control; survivor count (T/C endpoint: median tumor weight change, dose: 128.0 micrograms/kg/injection, schedule: Q01DX001 (ip), vehicle: distilled water + alcohol): 0 of 10 on day 31

Q: For C=C(C)[C@H]1Cc2c(ccc3c2O[C@@H]2COc4cc(OC)c(OC)cc4[C@@H]2C3=O)O1, which survivor count (T/C endpoint: median tumor weight (est.), dose: 64.0 mg/kg/injection, schedule: Q07DX005 (ip), vehicle: saline) is on record?
A: 1 of 10

Q: What does the source list for CO[C@@]12[C@@H]3N[C@@H]3CN1C1=C(C(=O)C(NCC3CCCO3)=C(C)C1=O)[C@@H]2COC(N)=O (some centres undefined)?
A: survivor count (T/C endpoint: median tumor weight change, dose: 50.0 mg/kg/injection, schedule: Q01DX001 (ip), vehicle: distilled water + Tween-80): 1 of 10 on day 28 and 4 of 10 on day 32; survivor count (T/C endpoint: median tumor weight change, dose: 100.0 mg/kg/injection, schedule: Q01DX001 (ip), vehicle: distilled water + Tween-80): 0 of 10 on day 28 and 0 of 10 on day 32

Q: Which results are given for COC1=C(N)C(=O)c2nc(-c3nc(C(=O)O)c(C)c(-c4ccc(OC)c(OC)c4O)c3N)ccc2C1=O?
A: survivor count (T/C endpoint: median tumor weight (est.), dose: 0.8 mg/kg/injection, schedule: Q07DX005 (ip), vehicle: Klucel (hydroxypropylcellulose) (HPC)): 2 of 10; survivor count (T/C endpoint: median tumor weight change, dose: 2.0 mg/kg/injection, schedule: Q01DX001 (ip), vehicle: Klucel (hydroxypropylcellulose) (HPC)): 4 of 10 on day 29, 6 of 10 on day 30, 6 of 10 on day 34; survivor count (T/C endpoint: median tumor weight change, dose: 4.0 mg/kg/injection, schedule: Q01DX001 (ip), vehicle: Klucel (hydroxypropylcellulose) (HPC)): 0 of 10 on day 29, 0 of 10 on day 30, 0 of 10 on day 34

Q: CC1=NN(c2cccc(S(=O)(=O)O)c2)C(=O)C1N=Nc1cc(Cl)cc(S(=O)(=O)O)c1O.CC1=NN(c2cccc(S(=O)(=O)O)c2)C(=O)C1N=Nc1cc(Cl)cc(S(=O)(=O)O)c1O.[Cr] (centres undefined) was tested. Which survivor count (T/C endpoint: median tumor weight change, dose: 500.0 mg/kg/injection, schedule: Q01DX001 (ip), vehicle: saline) did it give?
A: 3 of 10 on day 36

Q: And the survivor count (T/C endpoint: median tumor weight change, dose: 1000.0 mg/kg/injection, schedule: Q01DX001 (ip), vehicle: saline)?
A: 0 of 10 on day 36

Q: What about the survivor count (T/C endpoint: median tumor weight change, dose: 2000.0 mg/kg/injection, schedule: Q01DX001 (ip), vehicle: saline) of the same molecule?
A: 0 of 10 on day 36
